Out of some 340,000 compounds screened, about 4,500 (1.3%) were called active. Inconclusive means that the source gave no clear call. Such entries were picked first, then a sample of the others. Calls follow the shape of the dose curve; as a rule, active = well fitted inhibition curve with a large enough effect; inconclusive = small, poorly fitted or top-dose-only effect, or another doubt; inactive = no such curve, though single readings can be large or run the other way. A potency beside an inconclusive call is a rough fit, not a confirmed value.
Target: DNA polymerase beta (Homo sapiens) (UniProt P06746)
Experiment: qHTS Assay for Inhibitors of DNA Polymerase Beta
Conditions: Pol beta primer extension/strand displacement, fluorescence kinetic; activity change, negative = inhibition: at 114 µM (top of the series)
Summary of the method: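 Reaction started by 50 nM substrate onto compound-treated Pol beta (10 nM, 15 min preincubation, room temperature); plates read at 0 min and 10 min. Normalized concentration-effect data fitted by four-parameter Hill equation.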
% is scaled to controls: 0 for no effect and ±100 for the full control effect; potency is read from the fitted curve at half-maximal effect.

How did the Potency turn out when `O=C(O)c1cc2cc(Cl)cc(Cl)c2oc1=O` was run?
The Potency was active: 79.4 µM.

With `COCC(=O)Oc1c(Sc2ccc(C)cc2)c(C)nn1C(C)(C)C` as the molecule, how does the Potency read?
The Potency was inconclusive: 28.2 µM [inhibitor, partial curve].

How did the Potency turn out when `Cc1ccc(S(=O)(=O)N(C)c2ccc(C(=O)NCC(c3cccs3)N3CCOCC3)cc2)cc1` (stereo not drawn) was run?
The Potency was inconclusive: 0.316 µM [inhibitor, full curve, poor fit].

Which Potency does the source give for `Cc1ccc(-n2ncc3c(=O)n(-c4ccc(C)c(C)c4)c(-c4ccco4)nc32)cc1` here?
The Potency was “inactive”.

Which Potency does the source give for `O=C(CSc1nnnn1-c1ccccc1)Nc1nsc(-c2ccc(Cl)cc2)n1` here?
The Potency was inconclusive: 17.8 µM [inhibitor, partial curve].

How did the Potency turn out when `O=C(NC1CCCc2c1cnn2-c1ccc(F)cc1F)c1csnn1` (stereo not drawn) was run?
The Potency was inconclusive: 0.141 µM [inhibitor, full curve, poor fit].

`O=C(NCc1ccc(F)cc1)c1ccc(CSCc2cccc(Cl)c2)o1` was tested. Which Potency did it give?
The Potency was inconclusive: 79.4 µM [inhibitor, single point].

Which Potency does the source give for `O=C(COC(=O)Cc1ccc(S(=O)(=O)N2CCOCC2)s1)NCc1ccc(Cl)cc1` here?
The Potency was inconclusive: 14.1 µM [inhibitor, full curve, poor fit].

Which Potency does the source give for `Cc1ccccc1Cn1c(C(=O)O)c(CNCc2cccc(F)c2)c2ccccc21` here?
The Potency was “inactive”.

`O=C1c2ccccc2C(=O)C1(c1ccccc1)N1CCN(c2cccc(Cl)c2)CC1` was tested. Which Potency did it give?
The Potency was “inactive”.

How did the Potency turn out when `Oc1ccc(COCc2ccccc2)c2cccnc12` was run?
Its Potency is inconclusive: 89.1 µM [inhibitor, single point].

With `FC(F)(F)c1ccc(Cl)c(NC2=NCCCCC2)c1` as the molecule, how does the Potency read?
Its Potency is inconclusive: 89.1 µM [inhibitor, single point].

How did the Potency turn out when `COC(=O)c1ccc(/C=N/n2c(C)nc3ccccc3c2=O)cc1` was run?
The Potency was “inactive”.

Which Potency does the source give for `Cc1nc2nncn2c(N2CCN(c3ccccc3)CC2)c1C` here?
The Potency was “inactive”.

For `O=C(CSc1ccc(F)cc1)Nc1ccc(N2CCOCC2)c(Cl)c1`, which Potency is on record?
The Potency was inconclusive: 12.6 µM [inhibitor, partial curve].

How did the Potency turn out when `Cc1ccccc1CN(C)C(C)C(=O)Nc1ccccc1F` (stereo not drawn) was run?
The Potency was inconclusive: 100 µM [inhibitor, single point].

For `Cc1ccccc1CC1(CO)CCCN(Cc2ccn[nH]2)C1` (stereo not drawn), which Potency is on record?
The Potency was inconclusive: 39.8 µM [inhibitor, single point].

How did the Potency turn out when `C=CCc1ccccc1OCCSc1nc(-c2ccc(C(C)(C)C)cc2)nc2cc(=O)[nH]n12` was run?
The Potency was active: 39.8 µM.

For `O=C(NCc1ccco1)c1cc2nc(-c3ccc4c(c3)OCO4)cc(C(F)(F)F)n2n1`, which Potency is on record?
Its Potency is active: 79.4 µM.

How did the Potency turn out when `C=C(C)C(=O)Nc1cccc(C2=NOC3(C2)C[C@@H](C(N)=O)N(C(=O)c2ccc(OC)cc2)C3)c1` (stereo partly drawn) was run?
The Potency was active: 2.82 µM.

How did the Potency turn out when `O=C(Nc1ccc(Cl)cc1)c1cccc(N2C(=O)C3C4CCC(C4)C3C2=O)c1` (stereo not drawn) was run?
Its Potency is inconclusive: 89.1 µM [inhibitor, single point].

Which activity change, negative = inhibition does the source give for `COc1cc2ccccc2cc1C(=O)Nc1ccc2oc(-c3ccc(F)cc3)nc2c1` here?
Its activity change, negative = inhibition is inconclusive: -32.8% [inhibitor].

For `COc1ccc(/C=C2\CCc3ccccc3C2=O)cc1O`, which Potency is on record?
Its Potency is inconclusive: 89.1 µM [inhibitor, single point].

`COc1cc2cc(CN(Cc3nnnn3Cc3ccco3)C3CCCCC3)c(=O)[nH]c2cc1OC` was tested. Which Potency did it give?
The Potency was active: 44.7 µM.

For `COc1ccc(-c2csc(N(CCCN(C)C)C(=O)c3ccc(Br)cc3)n2)cc1`, which Potency is on record?
Its Potency is inconclusive: 89.1 µM [inhibitor, single point].

For `CC(=O)N(C(C)=O)N1C(=O)/C(=C/c2ccc(Cl)cc2)SC1=S`, which Potency is on record?
Its Potency is inconclusive: 12.6 µM [inhibitor, partial curve].

`c1ccc(-c2nc(-c3ccco3)n3ccccc23)cc1` was tested. Which Potency did it give?
Its Potency is active: 35.5 µM.

`COc1ccc(C2=NNC(c3ccco3)=Nc3ccc(F)cc32)cc1` was tested. Which Potency did it give?
Its Potency is inconclusive: 63.1 µM [inhibitor, single point].

Which Potency does the source give for `Clc1ccc2nc(CSc3ccccc3)cn2c1` here?
The Potency was inconclusive: 89.1 µM [inhibitor, single point].

Which Potency does the source give for `O=C(CSc1nc2ccccc2c(=O)[nH]1)c1ccc(O)c(O)c1` here?
Its Potency is active: 20 µM.

How did the Potency turn out when `CCC(C)(C)n1nnnc1C(c1ccc(N(C)C)cc1)N1CCN(C2CCCCC2)CC1` (stereo not drawn) was run?
The Potency was inconclusive: 0.794 µM [inhibitor, full curve, poor fit].

`COc1ccc(-n2c(C)c(C(C)=O)c3cc(OC(C)=O)ccc32)cc1` was tested. Which Potency did it give?
The Potency was inconclusive: 0.141 µM [inhibitor, full curve].

How did the Potency turn out when `Cc1c(Cl)ccc2sc(NC(=O)c3ccc(S(=O)(=O)N4CCCc5ccccc54)cc3)nc12` was run?
The Potency was inconclusive: 89.1 µM [inhibitor, single point].

How did the Potency turn out when `COc1cc(C(=O)O)cc(OC)c1OCc1cc(C(=O)O)oc1C` was run?
Its Potency is active: 17.8 µM.

With `COc1ccccc1CNC(=O)C(=O)NCC(c1ccco1)S(=O)(=O)c1cccs1` (stereo not drawn) as the molecule, how does the Potency read?
Its Potency is “inactive”.

`O=S(=O)(NC1CCCC1)c1ccc(S(=O)(=O)N2CCCN(Cc3ccccc3)C2)cc1` was tested. Which Potency did it give?
The Potency was inconclusive: 89.1 µM [inhibitor, single point].

`Cc1ccc(-c2nc(C(=O)NCCCN(C)C)cc3c2[nH]c2ccccc23)cc1` was tested. Which Potency did it give?
The Potency was inconclusive: 70.8 µM [inhibitor, single point].

Which Potency does the source give for `CCn1cc(C(=O)OCC(=O)c2ccc(Cl)cc2)c(=O)c2ccc(C)nc21` here?
The Potency was inconclusive: 25.1 µM [inhibitor, single point].

`Cc1ccc(N(Cc2cc3ccc(C)cc3[nH]c2=O)C(=O)c2ccco2)cc1` was tested. Which activity change, negative = inhibition did it give?
The activity change, negative = inhibition was inconclusive: -43% [inhibitor].

For `Cc1cc(C)c(CSc2nnc(C)n3c2cc2occc23)c(C)c1`, which Potency is on record?
Its Potency is inconclusive: 89.1 µM [inhibitor, single point].

Which Potency does the source give for `N#Cc1c(-c2ccccc2)cc(-c2ccccc2)nc1SCC(=O)O` here?
The Potency was “inactive”.

For `O=C(NC1CCCCC1)c1cc(Nc2cccc(C(F)(F)F)c2)nc2ccccc12`, which Potency is on record?
The Potency was inconclusive: 12.6 µM [inhibitor, single point].

With `Cc1cccc(N2CCN(C(=O)NCc3noc4ccccc34)CC2)c1C` as the molecule, how does the Potency read?
The Potency was inconclusive: 0.178 µM [inhibitor, full curve, poor fit].

How did the Potency turn out when `CCOc1cccc(-c2cc(C(=O)N/N=C/c3ccc(OC)c(CN4CCOCC4)c3)c3ccccc3n2)c1` was run?
The Potency was inconclusive: 1.78 µM [inhibitor, partial curve, poor fit].

Which Potency does the source give for `COc1ccc(NC(=S)NCCc2c[nH]c3ccccc23)cc1` here?
The Potency was “inactive”.

Which Potency does the source give for `CC1CC1C(=O)OCC(=O)NC(=O)NC12CC3CC(CC(C3)C1)C2` (stereo not drawn) here?
The Potency was inconclusive: 89.1 µM [inhibitor, single point].

How did the Potency turn out when `O=C(CSc1ccsc1[N+](=O)[O-])Nc1cccc(F)c1` was run?
The Potency was active: 7.08 µM.

With `CCn1nnc(NC(=O)CSc2ccc(Cl)cc2)n1` as the molecule, how does the Potency read?
Its Potency is active: 25.1 µM.

`CCCCCC(=O)Nc1cc2[nH]c(=O)cc(COC)c2cc1C` was tested. Which Potency did it give?
The Potency was inconclusive: 4.47 µM [inhibitor, single point].

How did the Potency turn out when `Nc1ccccc1N=Nc1ccccc1N` was run?
The Potency was “inactive”.

For `C/C(=N\NC(=O)c1cc(-c2ccc(C)s2)[nH]n1)c1ccncc1`, which Potency is on record?
The Potency was inconclusive: 14.1 µM [inhibitor, full curve, poor fit].

Which Potency does the source give for `CC(=O)N1c2ccc(S(=O)(=O)N3CCCC3)cc2CC1C(=O)Nc1cc(C)cc(C)c1` (stereo not drawn) here?
Its Potency is inconclusive: 89.1 µM [inhibitor, single point].

For `Cc1ccc(N(CC(O)COCc2ccco2)S(=O)(=O)c2ccc(C)cc2)cc1` (stereo not drawn), which Potency is on record?
Its Potency is active: 22.4 µM.

With `CC1(C)CC(=O)N(c2ccc(C#N)cc2)C(=O)C1` as the molecule, how does the Potency read?
The Potency was inconclusive: 5.01 µM [inhibitor, full curve].

How did the Potency turn out when `COc1ccccc1NC(=O)Cn1c(=O)n(-c2cccc(C(C)=O)c2)c(=O)c2c3c(sc21)CN(C(C)=O)CC3` was run?
Its Potency is inconclusive: 28.2 µM [inhibitor, single point].

Which Potency does the source give for `CCN(CC)C(=O)CSc1nc2ccc(NC(=O)CSc3nnc(N)s3)cc2s1` here?
The Potency was active: 31.6 µM.

Which Potency does the source give for `Cc1ccc(C2C=C(c3ccc(Cl)cc3)Nc3nc(NS(=O)(=O)c4ccccc4)nn32)cc1` (stereo not drawn) here?
The Potency was inconclusive: 1.41 µM [inhibitor, full curve, poor fit].

For `COc1ccc(S(=O)(=O)Nc2ccccn2)cc1`, which Potency is on record?
Its Potency is inconclusive: 7.94 µM [inhibitor, full curve].

`CSc1ncccc1C(=O)OCc1ccc(COC(=O)c2cccnc2SC)cc1` was tested. Which Potency did it give?
Its Potency is “inactive”.

`Cc1cc2cc(CN(Cc3cccs3)Cc3nnnn3CC3CCCO3)c(=O)[nH]c2cc1C` (stereo not drawn) was tested. Which Potency did it give?
Its Potency is inconclusive: 89.1 µM [inhibitor, single point].

`Cc1ccc(NC(=O)c2ccco2)c(NC(=O)CN2C(=O)c3ccccc3C2=O)c1` was tested. Which Potency did it give?
The Potency was inconclusive: 79.4 µM [inhibitor, single point].

For `O=C(c1ccccc1)c1cc([N+](=O)[O-])ccc1N1CCCC1`, which Potency is on record?
Its Potency is inconclusive: 39.8 µM [inhibitor, single point].

For `CCC(CC)NC(=O)Nc1ccccc1C(F)(F)F`, which Potency is on record?
The Potency was inconclusive: 89.1 µM [inhibitor, single point].

For `Cc1ccc(-n2c(O)c(C=Nc3ccccc3-c3n[nH]c(=S)[nH]c3=O)c3ccccc3c2=O)cc1C`, which Potency is on record?
The Potency was inconclusive: 79.4 µM [inhibitor, partial curve, poor fit].

With `Cc1ccc2c(=O)c(C(=O)c3ccc(F)cc3)cn(CC(=O)NCc3ccco3)c2n1` as the molecule, how does the activity change, negative = inhibition read?
The activity change, negative = inhibition was inconclusive: -70.5% [inhibitor].

Which Potency does the source give for `O=C(O)c1ccc(-c2ccco2)n1Cc1ccccc1` here?
Its Potency is inconclusive: 10 µM [inhibitor, full curve, poor fit].

Which Potency does the source give for `CCOC(=O)Cc1csc(NC(=O)Nc2ccc(Cl)cc2)n1` here?
Its Potency is “inactive”.

`CC(=O)c1ccc(NC(=O)c2cccc(NC(=O)c3ccccc3)c2)cc1` was tested. Which Potency did it give?
Its Potency is inconclusive: 7.08 µM [inhibitor, full curve, poor fit].

Reference: PubChem BioAssay AID485314 (National Center for Advancing Translational Sciences (NCATS), 2010)
